doi:10.1101/429076 (bioRxiv, 2018)
These are yes or no findings as the source states them, for the method shown.

Molecular target: FANCL URD-RING fragment (FANCL^UR, residues 109-375) (human) (UniProt Q9NW38)
Experiment: SEC

binding: no binding
B1: FANCL URD-RING fragment (FANCL^UR, residues 109-375) (domain or fragment, UniProt Q9NW38 109-375)
chain: QFYSSLIEEIGTLGWDKLVYADTCFSTIKLKAEDASGREHLITLKLKAKYPAESPDYFVDFPVPFCASWTPQSSLISIYSQFLAAIESLKAFWDVMDEIDEKTWVLEPEKPPRSATARRIALGNNVSINIEVDPRHPTMLPECFFLGADHVVKPLGIKLSRNIHLWDPENSVLQNLKDVLEIDFPARAILEKSDFTMDCGICYAYQLDGTIPDQVCDNSQCGQPFHQICLYEWLRGLLTSRQSFNIIFGECPYCSKPITLKMSGRKH
